These are yes or no findings as the source states them, for the method shown. Binding seen in cells or lysates may run through a third protein. Some binding calls cover weakened binding; strength is not graded here.
Target: endogenous full length TET1 with C-terminal 3xFLAG tag, wild type (WT mESCs) (mouse (endogenous in LF2 mESCs)) (UniProt Q3URK3)
Experiment: co-IP; FLAG IP from WT and D2018A mESCs (TET1-3xFLAG from the endogenous locus); western blot for FLAG and OGT

Chains of the proteins cited; added tags and fusions are not shown.
UniProt Q3URK3: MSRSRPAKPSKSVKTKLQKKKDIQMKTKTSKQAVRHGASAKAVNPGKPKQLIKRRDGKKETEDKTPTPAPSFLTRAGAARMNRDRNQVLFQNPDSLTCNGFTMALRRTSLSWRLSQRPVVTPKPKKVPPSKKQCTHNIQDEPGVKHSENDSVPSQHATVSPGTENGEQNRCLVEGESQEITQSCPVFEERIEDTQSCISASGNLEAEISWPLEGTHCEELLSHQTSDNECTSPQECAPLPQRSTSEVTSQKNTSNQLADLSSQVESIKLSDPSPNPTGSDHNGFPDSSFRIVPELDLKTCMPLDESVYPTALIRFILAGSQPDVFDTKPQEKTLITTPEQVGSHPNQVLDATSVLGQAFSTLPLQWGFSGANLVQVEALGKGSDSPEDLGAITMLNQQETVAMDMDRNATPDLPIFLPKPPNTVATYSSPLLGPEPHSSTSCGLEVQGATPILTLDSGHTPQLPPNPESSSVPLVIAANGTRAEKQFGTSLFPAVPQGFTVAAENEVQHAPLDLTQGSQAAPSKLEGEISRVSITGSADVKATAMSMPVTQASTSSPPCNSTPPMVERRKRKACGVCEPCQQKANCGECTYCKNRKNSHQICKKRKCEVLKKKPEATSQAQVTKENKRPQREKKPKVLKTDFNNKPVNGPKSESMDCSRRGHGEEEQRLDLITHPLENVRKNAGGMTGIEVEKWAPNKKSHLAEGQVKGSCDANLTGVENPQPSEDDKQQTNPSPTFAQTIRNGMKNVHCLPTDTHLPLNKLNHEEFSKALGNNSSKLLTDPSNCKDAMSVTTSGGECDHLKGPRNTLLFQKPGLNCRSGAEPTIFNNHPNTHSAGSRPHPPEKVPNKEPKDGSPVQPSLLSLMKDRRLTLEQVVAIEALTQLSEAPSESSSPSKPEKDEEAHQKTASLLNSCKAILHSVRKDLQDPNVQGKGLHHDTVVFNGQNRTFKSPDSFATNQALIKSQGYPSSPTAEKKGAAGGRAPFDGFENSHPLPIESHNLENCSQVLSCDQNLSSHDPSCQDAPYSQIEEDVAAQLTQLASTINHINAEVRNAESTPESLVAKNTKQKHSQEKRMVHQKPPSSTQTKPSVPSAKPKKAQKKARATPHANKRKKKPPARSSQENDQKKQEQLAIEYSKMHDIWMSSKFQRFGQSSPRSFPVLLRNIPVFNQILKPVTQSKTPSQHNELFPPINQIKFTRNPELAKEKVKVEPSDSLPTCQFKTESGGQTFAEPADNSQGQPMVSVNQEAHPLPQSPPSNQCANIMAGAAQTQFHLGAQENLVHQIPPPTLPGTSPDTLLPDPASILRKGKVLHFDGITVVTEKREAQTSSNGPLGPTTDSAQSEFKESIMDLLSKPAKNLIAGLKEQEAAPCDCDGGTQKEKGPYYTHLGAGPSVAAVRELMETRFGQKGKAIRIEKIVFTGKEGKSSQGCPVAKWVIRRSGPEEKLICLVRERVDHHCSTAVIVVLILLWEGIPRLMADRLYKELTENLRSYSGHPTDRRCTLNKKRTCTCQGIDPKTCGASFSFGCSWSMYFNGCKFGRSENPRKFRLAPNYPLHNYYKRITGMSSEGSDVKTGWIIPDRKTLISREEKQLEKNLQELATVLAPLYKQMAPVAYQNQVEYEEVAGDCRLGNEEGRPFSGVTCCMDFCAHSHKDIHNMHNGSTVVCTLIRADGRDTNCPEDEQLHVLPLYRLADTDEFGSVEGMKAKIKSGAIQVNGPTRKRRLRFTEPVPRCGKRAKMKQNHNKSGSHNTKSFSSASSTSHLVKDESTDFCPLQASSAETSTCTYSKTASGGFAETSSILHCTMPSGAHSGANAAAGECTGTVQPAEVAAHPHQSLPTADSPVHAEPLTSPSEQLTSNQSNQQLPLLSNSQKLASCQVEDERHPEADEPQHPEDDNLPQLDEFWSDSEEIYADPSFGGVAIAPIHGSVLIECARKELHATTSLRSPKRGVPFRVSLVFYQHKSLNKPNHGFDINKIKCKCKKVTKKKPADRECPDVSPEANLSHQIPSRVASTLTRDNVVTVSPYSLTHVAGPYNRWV

B1: endogenous OGT of mouse embryonic stem cells (enzyme, UniProt Q8CGY8 1-1046)
chain: MASSVGNVADSTEPTKRMLSFQGLAELAHREYQAGDFEAAERHCMQLWRQEPDNTGVLLLLSSIHFQCRRLDRSAHFSTLAIKQNPLLAEAYSNLGNVYKERGQLQEAIEHYRHALRLKPDFIDGYINLAAALVAAGDMEGAVQAYVSALQYNPDLYCVRSDLGNLLKALGRLEEAKACYLKAIETQPNFAVAWSNLGCVFNAQGEIWLAIHHFEKAVTLDPNFLDAYINLGNVLKEARIFDRAVAAYLRALSLSPNHAVVHGNLACVYYEQGLIDLAIDTYRRAIELQPHFPDAYCNLANALKEKGSVAEAEDCYNTALRLCPTHADSLNNLANIKREQGNIEEAVRLYRKALEVFPEFAAAHSNLASVLQQQGKLQEALMHYKEAIRISPTFADAYSNMGNTLKEMQDVQGALQCYTRAIQINPAFADAHSNLASIHKDSGNIPEAIASYRTALKLKPDFPDAYCNLAHCLQIVCDWTDYDERMKKLVSIVAEQLEKNRLPSVHPHHSMLYPLSHGFRKAIAERHGNLCLDKINVLHKPPYEHPKDLKLSDGRLRVGYVSSDFGNHPTSHLMQSIPGMHNPDKFEVFCYALSPDDGTNFRVKVMAEANHFIDLSQIPCNGKAADRIHQDGIHILVNMNGYTKGARNELFALRPAPIQAMWLGYPGTSGALFMDYIITDQETSPAEVAEQYSEKLAYMPHTFFIGDHANMFPHLKKKAVIDFKSNGHIYDNRIVLNGIDLKAFLDSLPDVKIVKMKCPDGGDNPDSSNTALNMPVIPMNTIAEAVIEMINRGQIQITINGFSISNGLATTQINNKAATGEEVPRTIIVTTRSQYGLPEDAIVYCNFNQLYKIDPSTLQMWANILKRVPNSVLWLLRFPAVGEPNIQQYAQNMGLPQNRIIFSPVAPKEEHVRRGQLADVCLDTPLCNGHTTGMDVLWAGTPMVTMPGETLASRVAASQLTCLGCLELIAKSRQEYEDIAVKLGTDLEYLKKIRGKVWKQRISSPLFNTKQYTMELERLYLQMWEHYAAGNKPDHMIKPVEVTESA
Which binding does the source give for B1 here?
The binding was “binds”.

From publication PMC6214653
